Measured values reported in article doi:10.1101/2025.01.09.632146.
Results are given in words; binding and its absence hold for the method and conditions named. For some assays here: Binding seen in cells or lysates may run through a third protein. Some results given as binding are weak or reduced against the parent protein; the word gives no strength.

Amino acid sequences for entries named in this document (tags omitted). A change or cut given only in a name is not applied to a line headed by its entry.
UniProt Q01474: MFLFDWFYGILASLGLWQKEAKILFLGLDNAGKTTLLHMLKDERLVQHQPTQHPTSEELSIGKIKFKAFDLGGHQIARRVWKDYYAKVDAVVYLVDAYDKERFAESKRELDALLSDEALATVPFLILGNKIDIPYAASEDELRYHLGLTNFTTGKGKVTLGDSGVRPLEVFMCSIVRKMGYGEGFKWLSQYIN
UniProt Q9SRI1: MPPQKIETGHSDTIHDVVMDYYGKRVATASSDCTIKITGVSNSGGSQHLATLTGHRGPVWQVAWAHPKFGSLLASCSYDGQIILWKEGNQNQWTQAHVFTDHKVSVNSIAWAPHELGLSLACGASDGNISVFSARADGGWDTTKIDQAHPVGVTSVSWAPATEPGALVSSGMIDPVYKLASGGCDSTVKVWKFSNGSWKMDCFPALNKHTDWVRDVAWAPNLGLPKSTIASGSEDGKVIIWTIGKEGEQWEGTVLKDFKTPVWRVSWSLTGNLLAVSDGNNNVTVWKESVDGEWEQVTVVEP
UniProt Q9CAT6: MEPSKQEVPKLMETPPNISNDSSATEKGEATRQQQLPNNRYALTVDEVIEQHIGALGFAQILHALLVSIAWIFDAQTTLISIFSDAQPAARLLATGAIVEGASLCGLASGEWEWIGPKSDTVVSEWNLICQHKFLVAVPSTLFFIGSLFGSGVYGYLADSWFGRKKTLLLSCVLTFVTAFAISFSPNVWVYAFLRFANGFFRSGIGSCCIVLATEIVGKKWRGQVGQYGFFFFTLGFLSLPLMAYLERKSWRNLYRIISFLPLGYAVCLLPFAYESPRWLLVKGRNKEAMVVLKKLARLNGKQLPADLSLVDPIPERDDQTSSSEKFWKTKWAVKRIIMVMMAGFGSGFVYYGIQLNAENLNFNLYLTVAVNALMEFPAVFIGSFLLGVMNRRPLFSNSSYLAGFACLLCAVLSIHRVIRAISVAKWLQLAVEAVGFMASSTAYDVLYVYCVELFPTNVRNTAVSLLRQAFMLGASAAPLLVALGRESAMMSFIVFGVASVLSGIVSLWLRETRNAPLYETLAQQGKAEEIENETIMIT

T1: AtPHT1;1-CubPLV (Arabidopsis thaliana) (UniProt Q8VYM2)
T1 sequence: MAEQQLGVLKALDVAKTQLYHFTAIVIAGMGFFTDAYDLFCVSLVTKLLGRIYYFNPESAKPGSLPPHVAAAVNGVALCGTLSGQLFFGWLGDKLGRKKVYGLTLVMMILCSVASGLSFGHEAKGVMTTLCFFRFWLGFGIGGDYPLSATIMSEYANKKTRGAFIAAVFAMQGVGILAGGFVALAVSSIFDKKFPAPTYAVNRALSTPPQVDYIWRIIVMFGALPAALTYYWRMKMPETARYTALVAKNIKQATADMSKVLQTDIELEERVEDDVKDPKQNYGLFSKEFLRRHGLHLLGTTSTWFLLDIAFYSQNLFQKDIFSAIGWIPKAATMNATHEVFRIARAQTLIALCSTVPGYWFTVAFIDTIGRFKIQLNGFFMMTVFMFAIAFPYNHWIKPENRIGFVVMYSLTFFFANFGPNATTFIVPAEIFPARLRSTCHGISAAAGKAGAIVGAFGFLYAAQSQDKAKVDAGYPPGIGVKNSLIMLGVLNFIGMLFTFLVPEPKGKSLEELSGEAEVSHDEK

T2: AtSEC24a-S11 (Arabidopsis thaliana) (UniProt Q9SFU0)
T2 sequence: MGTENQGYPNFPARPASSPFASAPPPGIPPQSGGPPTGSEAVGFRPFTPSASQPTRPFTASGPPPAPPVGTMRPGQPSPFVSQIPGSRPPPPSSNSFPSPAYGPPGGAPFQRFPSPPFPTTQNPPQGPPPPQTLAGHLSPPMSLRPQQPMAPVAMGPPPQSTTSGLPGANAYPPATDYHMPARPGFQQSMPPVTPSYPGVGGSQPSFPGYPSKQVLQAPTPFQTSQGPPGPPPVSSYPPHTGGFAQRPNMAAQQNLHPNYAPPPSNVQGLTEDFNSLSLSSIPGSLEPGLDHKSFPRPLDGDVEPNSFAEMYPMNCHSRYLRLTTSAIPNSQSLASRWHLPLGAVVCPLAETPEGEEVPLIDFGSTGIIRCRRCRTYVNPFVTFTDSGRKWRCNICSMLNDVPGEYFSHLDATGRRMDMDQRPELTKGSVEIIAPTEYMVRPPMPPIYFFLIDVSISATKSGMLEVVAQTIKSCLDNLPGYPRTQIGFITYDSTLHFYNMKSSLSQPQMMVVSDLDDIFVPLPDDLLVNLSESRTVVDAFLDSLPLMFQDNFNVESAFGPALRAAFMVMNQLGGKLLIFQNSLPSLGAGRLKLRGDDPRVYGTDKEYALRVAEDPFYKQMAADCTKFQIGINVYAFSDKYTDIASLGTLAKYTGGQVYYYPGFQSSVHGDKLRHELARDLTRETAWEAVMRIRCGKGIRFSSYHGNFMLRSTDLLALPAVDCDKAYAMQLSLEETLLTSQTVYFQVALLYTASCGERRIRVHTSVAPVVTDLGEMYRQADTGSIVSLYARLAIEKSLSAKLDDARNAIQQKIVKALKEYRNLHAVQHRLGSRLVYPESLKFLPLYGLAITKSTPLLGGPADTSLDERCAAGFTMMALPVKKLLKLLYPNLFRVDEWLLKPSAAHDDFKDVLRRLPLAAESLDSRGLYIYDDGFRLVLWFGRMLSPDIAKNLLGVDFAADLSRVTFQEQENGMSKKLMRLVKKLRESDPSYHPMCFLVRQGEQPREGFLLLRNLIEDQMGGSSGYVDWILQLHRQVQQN

T3: AtSEC16a-S11 (Arabidopsis thaliana) (UniProt Q9FGK9)
T3 sequence: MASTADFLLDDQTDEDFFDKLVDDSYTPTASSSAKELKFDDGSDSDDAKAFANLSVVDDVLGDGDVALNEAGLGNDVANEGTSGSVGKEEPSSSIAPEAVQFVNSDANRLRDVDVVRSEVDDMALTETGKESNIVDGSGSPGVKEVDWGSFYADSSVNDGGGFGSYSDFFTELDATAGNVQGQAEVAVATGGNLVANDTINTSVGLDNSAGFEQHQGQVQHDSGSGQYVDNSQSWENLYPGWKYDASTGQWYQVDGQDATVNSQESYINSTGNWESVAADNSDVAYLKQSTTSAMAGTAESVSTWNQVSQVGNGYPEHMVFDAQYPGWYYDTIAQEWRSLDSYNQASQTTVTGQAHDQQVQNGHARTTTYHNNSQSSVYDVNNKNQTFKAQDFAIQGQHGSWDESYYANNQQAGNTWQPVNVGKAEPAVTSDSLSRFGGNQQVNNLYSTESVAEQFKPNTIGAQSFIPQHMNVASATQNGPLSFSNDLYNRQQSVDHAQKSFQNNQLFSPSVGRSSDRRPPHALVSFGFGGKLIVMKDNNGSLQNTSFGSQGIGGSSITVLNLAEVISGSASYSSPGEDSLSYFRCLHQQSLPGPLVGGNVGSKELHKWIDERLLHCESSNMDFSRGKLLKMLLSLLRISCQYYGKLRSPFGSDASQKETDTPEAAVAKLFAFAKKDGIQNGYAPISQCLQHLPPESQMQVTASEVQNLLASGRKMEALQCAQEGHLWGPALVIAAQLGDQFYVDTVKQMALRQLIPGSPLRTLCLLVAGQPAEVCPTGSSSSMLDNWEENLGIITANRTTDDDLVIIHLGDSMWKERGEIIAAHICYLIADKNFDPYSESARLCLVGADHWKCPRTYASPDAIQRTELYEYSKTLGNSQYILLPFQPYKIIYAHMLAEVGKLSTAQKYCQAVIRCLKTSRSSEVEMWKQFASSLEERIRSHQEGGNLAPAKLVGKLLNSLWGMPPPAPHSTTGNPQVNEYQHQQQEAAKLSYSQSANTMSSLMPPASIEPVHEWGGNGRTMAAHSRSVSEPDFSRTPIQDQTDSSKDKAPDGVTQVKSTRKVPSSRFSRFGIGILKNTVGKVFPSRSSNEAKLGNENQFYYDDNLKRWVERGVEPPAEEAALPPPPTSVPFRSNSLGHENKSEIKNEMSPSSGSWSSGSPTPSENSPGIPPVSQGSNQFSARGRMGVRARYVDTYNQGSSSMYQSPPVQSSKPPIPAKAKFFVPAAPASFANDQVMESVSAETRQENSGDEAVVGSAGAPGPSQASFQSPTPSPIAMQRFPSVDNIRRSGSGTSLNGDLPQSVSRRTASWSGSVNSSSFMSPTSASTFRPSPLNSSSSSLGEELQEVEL


Assays:
[1] = target: T1, AtPHT1;1-CubPLV (Arabidopsis thaliana); test: two-hybrid
[2] = target: AtSAR1b-S11 (Arabidopsis thaliana) (UniProt Q01474); test: split reporter
[3] = target: AtSAR1b[T34N]-S11 (Arabidopsis thaliana) (UniProt Q01474); test: split reporter
[4] = target: T2, AtSEC24a-S11 (Arabidopsis thaliana); test: split reporter
[5] = target: T3, AtSEC16a-S11 (Arabidopsis thaliana); test: split reporter
[6] = target: AtSEC13a-S11 (Arabidopsis thaliana) (UniProt Q9SRI1); test: split reporter
[7] = target: AtSAR1b[H74L]-CFP (Arabidopsis thaliana) (UniProt Q01474); test: co-IP

Molecule	binding [1]	binding [3]	other results
AtOCT1-NubG (from UniProt Q9CAT6 1-539)	no binding	–	–
S10-AtPHF1 N (from UniProt Q8GYE0 1-337) (domain or fragment)	–	binds	binding [2]: binds
S10-AtSEC12 (protein, UniProt Q39221 1-393) MANQSTETNQPSNMQTYGVPIYAADWIPEVDVRSKIIMDPEKSEDDDESSSSSSSSRSCIVLSGGGGEGRSGISNVILICRVDLNTNSLSEQPLGRLVVGSDLPYRMAVHPREGGLICALPNSCKLFHWEDIMSREDNQAGESEEVIKELRDVGQQLALAFNPEGSVLAAGAEDGTLRVFKWPSMNTLLNESQAHSSVKCLTFSESGQFLVSLGGPVCRVWDVNASAAVASLSKEKDEMFASCRFSVDSAGNEVLYIAANTERGGSIITCDTKLWKRKWSKPIKKNSISAFNVSADGKLLAIGTLEGDVLILESTRMQTIQVVKKAHLGLVTALTFSPDSRGLVSVSFDSRARLTMIEQKGDKPGVRWWLLVLLIVLLYVVAYYYMKAKGIIP	–	binds	–
S10-AtPHF1 (protein, UniProt Q8GYE0 1-398) MEIEEASRESGHVVCGSWIRRPKKVNWVLIAKASKRRGSSVSSPALLNIFSFDPITASLSSSPLATHTLKDSDGDPVAVSVHPGGDYFVCSTSKGGCKLFELVGGATGITILAKELLPLQNAGLQKCMAFSFDGSKLAVGGVDGCLRIMEWPNLSVILDEPKAHKSIRDMDFSLDSEFLATTSTDGSARIWKAEDGFPLSTLERSGDENIELCRFSKDGTKPFLFCAAQRGDTPMVNVYDISTWKKLGFKKLSRKTASTMAVSLDGKYIALGGKDGDVSVAEVKTMEIYHYSKRLHLGQSIASLEFCPSERVMLTTSSEWGEMVTKLTVPKEWKEWQIYALLFCLFMASVIAAYVFFENSDSFWKLPMGKDQKRPKISLFGGSSSTPSEDHSRWNLDL	–	binds	binding [4]: no binding; binding [5]: no binding; binding [6]: no binding
endogenous AtPHF1 (protein, UniProt Q8GYE0 1-398) MEIEEASRESGHVVCGSWIRRPKKVNWVLIAKASKRRGSSVSSPALLNIFSFDPITASLSSSPLATHTLKDSDGDPVAVSVHPGGDYFVCSTSKGGCKLFELVGGATGITILAKELLPLQNAGLQKCMAFSFDGSKLAVGGVDGCLRIMEWPNLSVILDEPKAHKSIRDMDFSLDSEFLATTSTDGSARIWKAEDGFPLSTLERSGDENIELCRFSKDGTKPFLFCAAQRGDTPMVNVYDISTWKKLGFKKLSRKTASTMAVSLDGKYIALGGKDGDVSVAEVKTMEIYHYSKRLHLGQSIASLEFCPSERVMLTTSSEWGEMVTKLTVPKEWKEWQIYALLFCLFMASVIAAYVFFENSDSFWKLPMGKDQKRPKISLFGGSSSTPSEDHSRWNLDL	–	–	binding [7]: binds
AtPHF1-NubG (protein, UniProt Q8GYE0 1-398) MEIEEASRESGHVVCGSWIRRPKKVNWVLIAKASKRRGSSVSSPALLNIFSFDPITASLSSSPLATHTLKDSDGDPVAVSVHPGGDYFVCSTSKGGCKLFELVGGATGITILAKELLPLQNAGLQKCMAFSFDGSKLAVGGVDGCLRIMEWPNLSVILDEPKAHKSIRDMDFSLDSEFLATTSTDGSARIWKAEDGFPLSTLERSGDENIELCRFSKDGTKPFLFCAAQRGDTPMVNVYDISTWKKLGFKKLSRKTASTMAVSLDGKYIALGGKDGDVSVAEVKTMEIYHYSKRLHLGQSIASLEFCPSERVMLTTSSEWGEMVTKLTVPKEWKEWQIYALLFCLFMASVIAAYVFFENSDSFWKLPMGKDQKRPKISLFGGSSSTPSEDHSRWNLDL	binds	–	–
NubG-AtCNIH5 (protein, UniProt Q9SZ74 1-135) MGDLLDWIISFLFLATLIIIVIYQLTCLADLEFDRINPYDVSSRINRMVLPEFGLQGLLCLYYILTGHWFMAVLSLPHLFYNIRLYMKREHLADVTELYNTNKWEQKKRVYKIGHIALSIFITTYWLIHSALGDI	binds	–	–
